PubChem BioAssay AID504793 | Drosophila RNAi Screening Center – 2011

Purpose: 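Whole-genome screen for parts of the DNA damage checkpoint at G2/M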 (primary screen)
Cells: Drosophila S2R+ cells
Reagents: long dsRNA against Drosophila genes, about 0.25 µg dsRNA per well
Duration: 4 days of dsRNA, then 4 hours of drug before read-out
Challenge: doxorubicin 0.5 µM for 4 hours to cause double-strand breaks, in cells also given a low, harmless dose of dsRNA against nbs to sensitise the assay
Measured: 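Per-well count of mitotic cells stained for phospho-histone H3 after doxorubicin exposure, used as mitotic index; counts are raw and not normalised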
Reading the numbers: mitotic cells: higher = more cells in mitosis, weaker G2 arrest
Hit rule: 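a call needs confirmation in secondary tests, with other dsRNAs and a check of mitotic timing without damage, not just a high primary count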
Meaning of the calls: active = confirmed in follow-up tests; inactive = not confirmed
The screen tested about 23,000 reagents; this is a random part of those that have a named target and a result. Over the whole deposit, 62 (0.27%) were called active. 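Calls come from follow-up tests whose scores are not deposited, so confirmed genes may have low counts here; counts are not normalised per plate.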 Raw values are not corrected between plates. Entries without a mark were called inactive. The numbers tell different reagents against one gene apart. A plus sign joins genes that one reagent is predicted to hit.

no.	gene	reagent	mitotic cells, replicate 1	mitotic cells, replicate 2
1	LysP (Lysozyme P)	1	6	
2	LysP (Lysozyme P)	2	7	
3	Irbp (Inverted repeat-binding protein)	1	3	
4	Irbp (Inverted repeat-binding protein)	2	14	
5	Irbp (Inverted repeat-binding protein)	3	3	
6	CG16790	1	10	
7	CG13064	1	2	
8	OSCP1	1	3	
9	CG31174	1	8	
10	CG13717 (retired record)	1	5	
11	CG13717 (retired record)	2	5	
12	CG13717 (retired record)	3	7	
13	CG13717 (retired record)	4	7	
14	CG13717 (retired record)	5	2	
15	Tsp42Ej (Tetraspanin 42Ej)	1	4	
16	Tsp42Ej (Tetraspanin 42Ej)	2	4	
17	C1GalTA (Core 1 Galactosyltransferase A)	1	3	
18	Osi22 (Osiris 22)	1	8	
19	Osi22 (Osiris 22)	2	5	
20	Prosbeta1 (Proteasome beta1 subunit)	1	6	
21	Sidpn (similar to Deadpan)	1	5	
22	CG5245	1	6	
23	CG5245	2	5	
24	Acsx2 (Acyl-CoA synthetase X2)	1	3	
25	Wnt10 (Wnt oncogene analog 10)	1	4	
26	Wnt10 (Wnt oncogene analog 10)	2	8	
27	MSBP (membrane steroid binding protein)	1	7	
28	LManIII (Lysosomal alpha-mannosidase III)	1	2	
29	LManIII (Lysosomal alpha-mannosidase III)	2	7	
30	Ube3a (Ubiquitin protein ligase E3A)	1	5	
31	ng4 (new glue 4)	1	8	
32	CG18577	1	9	
33	CG4793	1	8	
34	ste24a (prenyl protease type I)	1	3	
35	ste24a (prenyl protease type I)	2	8	
36	Zwilch	1	13	

Single entries from the entries so far:
Wnt10 (Wnt oncogene analog 10) #2, mitotic cells, replicate 1 = 8
LysP (Lysozyme P) #2, mitotic cells, replicate 1: 7
Under “mitotic cells, replicate 1”, Tsp42Ej (Tetraspanin 42Ej) #2 shows 4

More entries:
no.	gene	reagent	mitotic cells, replicate 1	mitotic cells, replicate 2
37	CG4598	1	6	
38	CG13049	1	5	
39	CG13049	2	3	
40	Hmt-1 (Heavy metal tolerance factor 1)	1	8	
41	h-cup + Rbp	1	5	
42	oaf (out at first)	1	2	
43	CG30380	1	9	
44	Ctr1B + Poxm	1	3	
45	CAH2 (Carbonic anhydrase 2)	1	6	
46	CCT7 (Chaperonin containing TCP1 subunit 7)	1	114	
47	Or65c (Odorant receptor 65c)	1	8	
48	Acp26Aa (Accessory gland protein 26Aa)	1	7	
49	Syt7 (Synaptotagmin 7)	1	16	
50	Syt7 (Synaptotagmin 7)	2	5	
51	sncRNA:430e + His2A:CG33859 + His2A:CG33817 + 37 more	1	19	
52	Gpb5 (Glycoprotein hormone beta 5)	1	12	
53	CG31224	1	11	
54	CG31224	2	8	
55	kst (karst)	1	9	
56	Hydr1 (alpha/beta hydrolase 1)	1	6	
57	Ir94g (Ionotropic receptor 94g)	1	9	
58	Ir94g (Ionotropic receptor 94g)	2	6	
59	CG14154	1	7	
60	Pka-C3 (Protein kinase, cAMP-dependent, catalytic subunit 3)	1	5	
61	Pka-C3 (Protein kinase, cAMP-dependent, catalytic subunit 3)	2	3	
62	Pka-C3 (Protein kinase, cAMP-dependent, catalytic subunit 3)	3	7	
63	ND-B8 (NADH dehydrogenase (ubiquinone) B8 subunit)	1	2	
64	CG34435	1	8	
65	kn (knot)	1	5	
66	kn (knot)	2	11	
67	kn (knot)	3	6	
68	kn (knot)	4	2	
69	cib (ciboulot)	1	5	3
70	CG11588	1	18	
71	CG11588	2	6	
72	CG31510	1	7	
73	CG18853 + phr	1	4	
74	Fgop2 (Fibroblast growth factor receptor 1 oncogene partner 2)	1	5	
75	CG8916	1	4	
